Data as given in patent US20250082769A1, “CELLULAR UPTAKE PEPTIDE-THERAPEUTIC PAYLOAD COMPOSITIONS AND METHODS OF USE” (Nighthawk Biosciences, Inc., priority 2022, published 2025).
For at least one compound, name, drawing or mass did not settle the structure.

Tests used:
Format in all cases: cell-based
CHLA06 cells [1] = assay: Caspase assay (apoptosis) in CHLA06 cells; conditions: SMARCB1 conjugate and tazemetostat treatments
Experimental: (§1) Biological activity of the peptides was determined using various assays. To determine proliferative activity, cells were plated at 5×10^3 cells per well in a 96-well microtiter plate. Samples and controls were added and the plates incubated for 24, 48 and 72 hours at 37° C. Viability was determined by adding WST-1 and reading at […] over 1-4 hours. Alternatively, viability was determined using a kit such as the EZViable calcein AM cell viability assay (BioVision) or the Live/Dead Cell imaging kit (ThermoFisher). Induction of cell events such as apoptosis was determined using reagents such as Cell Event Caspase 3/7 reagent (ThermoFisher).
429-MMAE was also compared with 429-SM in various cell lines. 429-SM represents 429-Smarc-MMAE and consists of 429-linker-NLS-SMARCB1 mimic to which 1 or 2 MMAE molecules are conjugated through the cysteines. CHLA06 cells were plated at 10,000 cells/well in B27-5 overnight. Samples were added and incubated for 48 hours at 37° C. Caspase 3/7 reagent was added and plates were read after 30 minutes at room temperature. […] Induction of apoptosis is directly correlated with drug concentration (i.e., higher the concentration of drug, the higher the apoptotic effect). […] 429-SM was also effective in A431 and HCT116 cells (FIG. 42C-42D).

CHLA06 cells [2] = assay: Dose response / cell viability in CHLA06 cells; conditions: 429-SMARCB1 and tazemetostat treatments
Experimental: as §1

CHLA02 cells = assay: Caspase activity / apoptosis in CHLA02 cells; conditions: CHL02 cells; SMARCB1 Mimic (F) and tazemetostat treatments
Experimental: as §1

For `CCN(c1cc(-c2ccc(CN3CCOCC3)cc2)cc(C(=O)NCc2c(C)cc(C)[nH]c2=O)c1C)C1CCOCC1` [tazemetostat, reference compound], the caspase activity (CHLA06 cells [1]) was “significantly increased caspase activity”, the cell viability (CHLA06 cells [2]) was “reduced cell viability” and the caspase activity (CHLA02 cells) was “significantly increased caspase activity”.
